Data as given in PubChem BioAssay AID504744 (Drosophila RNAi Screening Center, 2011).
The deposit covers about 23,000 reagents; below is an unselected part of those with a known target gene and a result. In the full data, 98 (0.43%) were called active. 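Only hit calls are given; the phospho-dAkt signals, z-scores and hit direction were not deposited.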 A plus sign joins genes that one reagent is predicted to hit. No sequences are given here.

Aim: 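Find genes whose loss alters insulin-driven dAkt phosphorylation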 (primary screen)
System: Drosophila Kc167 cells
Knock-down reagent: long dsRNA against Drosophila genes, 250 ng dsRNA per well of a 384-well plate
Duration: 3 days of knock-down, then overnight serum-free starvation before stimulation
Conditions: bovine insulin at 387 nM for 10 minutes after 12 h without serum
Detection: 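Per-well phospho-dAkt level from an in-cell fluorescent antibody stain, divided by a DNA-dye signal; log2 residuals turned into z-scores that take cell number into account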
Call rule: 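Under insulin, a gene counts as a hit if the average z-score of two replicates lies above 2.5 or below -2.5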

gene knocked down	PubChem SID	activity call
Atg17	SID104192013	inactive
eve	SID104187406	inactive
CG18659	SID104186576	inactive
RpL9	SID104183210	inactive
Ars2	SID104184685	inactive
CG3630	SID104198291	inactive
PIP82	SID104198486	inactive
LManV	SID104183015	inactive
z	SID104198647	inactive
mop	SID104190857	inactive
CG14635	SID104197737	inactive
CG14958	SID104188209	inactive
Indy-2 + CG33934	SID104195477	inactive
Indy-2 + CG33934	SID104195478	inactive
CG18787 + CG18789	SID104182490	inactive
Use1	SID104189972	inactive
Ugt37C2	SID104182039	inactive
Dgkepsilon	SID104187191	inactive
CG13707	SID104188108	inactive
lncRNA:Hsromega	SID104202234	inactive
RpL28 + snoRNA:Or-CD12	SID104188085	inactive
CG3257	SID104184143	inactive
5-HT2A	SID104191782	inactive
EndoG	SID104187084	inactive
EndoG	SID104202118	inactive
Mpc1	SID104194562	inactive
CG4991	SID104199720	inactive
CG11906	SID104185888	inactive
Ssk	SID104190548	inactive
CG5916	SID104195709	inactive
Hacl	SID104185853	inactive
CG13841	SID104194483	inactive
dbr	SID104180066	inactive
CG32625	SID104198786	inactive
Grip84	SID104200040	inactive
up	SID104200174	inactive
CG6329	SID104186768	inactive
CG31688	SID104182474	inactive
CG17598	SID104200428	inactive
arg	SID104198529	inactive
RIOK2	SID104194205	inactive
Pomp	SID104182993	inactive
CG32160 (retired record)	SID104202263	inactive
ZnT77C	SID104191558	inactive
ZnT77C	SID104191559	inactive
Rpt2	SID104196591	inactive
RhoU	SID104197427	inactive
RhoU	SID104197595	inactive
RhoU	SID104197596	inactive
RhoU	SID104201706	inactive
RhoU	SID104201874	inactive
Parp16	SID104186389	inactive
O-fut1	SID104185930	inactive
ppk6	SID104185854	inactive
CG1896	SID104195189	inactive
Mdr65	SID104191012	inactive
RpL36	SID104198500	inactive
Klp67A	SID104190997	inactive
CG7702	SID104196085	inactive
Mink	SID104194083	inactive
bip1	SID104191119	inactive
RpS14a	SID104198502	inactive
CG7071 + Muted	SID104195981	inactive
Ent3	SID104189614	inactive
Spt5	SID104187348	inactive
CG4679	SID104186672	inactive
AdipoR	SID104195559	inactive
CG3505	SID104195281	inactive
CG43333	SID104181709	inactive
CG2063	SID104186603	inactive
CG4666	SID104198171	inactive
CG32579	SID104199664	inactive
Ets21C	SID104180543	inactive
CG8314	SID104186936	inactive
CycJ	SID104188445	inactive
Cyfip	SID104195471	inactive
Or82a	SID104191788	inactive
CG30345	SID104184936	inactive
CG15456	SID104200319	inactive
CG33108	SID104201313	inactive
CG11149	SID104181922	inactive
Desi	SID104194701	inactive
CG42591	SID104188697	inactive
CG9757	SID104196349	inactive
CG9757	SID104201383	inactive
indra	SID104188350	inactive
beat-Ib	SID104183282	inactive
Alg10	SID104190684	inactive
fus	SID104185361	inactive
fus	SID104186899	inactive
CG34249 (retired record)	SID104189223	inactive
Nsun5	SID104195627	inactive
AANATL3	SID104181881	inactive
Polr3A	SID104199558	inactive
Atg4a	SID104180448	inactive
CG5662	SID104199749	inactive
Nhe3	SID104183172	inactive
Pdha	SID104198205	inactive
Ndf	SID104182567	inactive
Cdc14	SID104182805	inactive
CG11695	SID104199208	inactive
CG4572	SID104195395	inactive
CG14355	SID104194610	inactive

A portion taken from the entries so far:
gene knocked down	PubChem SID	activity call
Ars2	SID104184685	inactive
CG3630	SID104198291	inactive
PIP82	SID104198486	inactive
LManV	SID104183015	inactive
z	SID104198647	inactive
mop	SID104190857	inactive
CG14635	SID104197737	inactive
CG14958	SID104188209	inactive
Indy-2 + CG33934	SID104195477	inactive
Indy-2 + CG33934	SID104195478	inactive
CG18787 + CG18789	SID104182490	inactive
Use1	SID104189972	inactive
Ugt37C2	SID104182039	inactive
Dgkepsilon	SID104187191	inactive
CG13707	SID104188108	inactive
lncRNA:Hsromega	SID104202234	inactive
RpL28 + snoRNA:Or-CD12	SID104188085	inactive
CG3257	SID104184143	inactive
5-HT2A	SID104191782	inactive
EndoG	SID104187084	inactive
EndoG	SID104202118	inactive
Mpc1	SID104194562	inactive
CG4991	SID104199720	inactive
CG11906	SID104185888	inactive

The list goes on:
gene knocked down	PubChem SID	activity call
sas	SID104192423	inactive
CtsK1	SID104188534	inactive
CG42336	SID104185065	inactive
CG42336	SID104186124	inactive
CG42336	SID104186125	inactive
Cdk2	SID104196713	inactive
CG11694	SID104194146	inactive
dpr9	SID104194326	inactive
dpr9	SID104194777	inactive
dpr9	SID104194778	inactive
RNaseP:RNA	SID104202324	inactive
brv3	SID104198449	inactive
Liprin-alpha	SID104181924	inactive
Drsl6	SID104187953	inactive
jing	SID104184715	inactive
jing	SID104184719	inactive
jing	SID104184792	inactive
Lrp4	SID104199910	inactive
CG14454	SID104191503	inactive
CG6656	SID104195877	inactive
CG6277	SID104195800	inactive
Phax	SID104186858	inactive
CG10477	SID104189524	inactive
CG10011	SID104193966	inactive
UQCR-11L	SID104201713	inactive
CG15373	SID104199455	inactive
Hsp110	SID104190978	inactive
CG13110	SID104182000	inactive
IleRS-m	SID104190298	inactive
CG30001	SID104184983	inactive
cN-IIIB	SID104184151	inactive
ENGase	SID104199744	inactive
ENGase	SID104199745	inactive
CG7460	SID104190642	inactive
Dek	SID104187210	inactive
CG32582 (retired record)	SID104198906	inactive
hpo	SID104185857	inactive
Mal-A2	SID104187252	inactive
CAH16	SID104195163	inactive
nvd	SID104201691	inactive
Eip63E	SID104188450	inactive
yellow-g	SID104188367	inactive
mei-41	SID104200142	inactive
Mob3	SID104182583	inactive
Dh44-R2	SID104185933	inactive
Dh44-R2	SID104186073	inactive
CG3817	SID104195307	inactive
CG12863	SID104185995	inactive
Ufd1	SID104190399	inactive
Lcp65Ac	SID104191002	inactive
CG11322	SID104181934	inactive
dsb	SID104188199	inactive
dsb	SID104188334	inactive
Rdh1	SID104186604	inactive
